The supplement of paper PMC10849652
Some of the results follow.

Sequences of proteins named here, by UniProt entry; tags and fusion partners are left off. A change or cut given only in a name is not applied to a line headed by its entry.
UniProt O75865, whole entry, looked up: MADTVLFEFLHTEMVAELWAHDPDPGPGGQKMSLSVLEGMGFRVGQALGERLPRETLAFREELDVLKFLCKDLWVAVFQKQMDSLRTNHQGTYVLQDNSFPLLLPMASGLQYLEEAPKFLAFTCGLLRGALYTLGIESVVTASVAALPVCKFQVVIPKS
UniProt O95801: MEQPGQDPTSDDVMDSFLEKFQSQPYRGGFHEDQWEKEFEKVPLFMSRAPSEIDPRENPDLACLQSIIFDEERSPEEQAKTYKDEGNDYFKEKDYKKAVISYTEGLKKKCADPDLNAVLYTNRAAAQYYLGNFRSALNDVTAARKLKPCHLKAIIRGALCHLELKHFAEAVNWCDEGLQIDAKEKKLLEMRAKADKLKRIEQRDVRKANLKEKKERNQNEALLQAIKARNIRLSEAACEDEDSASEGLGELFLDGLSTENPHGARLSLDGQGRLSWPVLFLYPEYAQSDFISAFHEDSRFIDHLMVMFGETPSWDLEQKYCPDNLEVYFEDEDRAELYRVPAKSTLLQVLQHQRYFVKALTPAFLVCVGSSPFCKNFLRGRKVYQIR
UniProt Q15642: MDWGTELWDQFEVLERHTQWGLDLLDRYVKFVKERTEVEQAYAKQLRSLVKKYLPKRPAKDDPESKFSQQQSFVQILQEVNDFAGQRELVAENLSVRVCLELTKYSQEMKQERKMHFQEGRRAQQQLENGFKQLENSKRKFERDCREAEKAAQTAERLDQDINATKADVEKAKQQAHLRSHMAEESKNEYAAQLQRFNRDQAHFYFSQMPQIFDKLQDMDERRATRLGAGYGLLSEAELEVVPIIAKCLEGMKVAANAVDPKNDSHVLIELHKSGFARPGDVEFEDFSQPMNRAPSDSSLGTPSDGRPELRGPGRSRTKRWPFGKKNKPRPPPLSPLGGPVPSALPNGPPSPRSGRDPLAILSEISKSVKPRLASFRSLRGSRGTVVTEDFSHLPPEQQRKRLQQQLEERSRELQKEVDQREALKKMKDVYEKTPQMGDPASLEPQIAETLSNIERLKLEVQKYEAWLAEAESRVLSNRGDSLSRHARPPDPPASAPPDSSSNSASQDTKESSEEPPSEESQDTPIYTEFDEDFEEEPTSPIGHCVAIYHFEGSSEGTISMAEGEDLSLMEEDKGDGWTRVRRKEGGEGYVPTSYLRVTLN
UniProt Q9UL33, whole entry, looked up: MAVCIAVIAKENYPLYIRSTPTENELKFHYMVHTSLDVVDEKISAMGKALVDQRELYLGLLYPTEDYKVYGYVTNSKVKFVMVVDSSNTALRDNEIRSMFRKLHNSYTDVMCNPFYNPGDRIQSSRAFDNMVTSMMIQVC
UniProt P30536, whole entry, looked up: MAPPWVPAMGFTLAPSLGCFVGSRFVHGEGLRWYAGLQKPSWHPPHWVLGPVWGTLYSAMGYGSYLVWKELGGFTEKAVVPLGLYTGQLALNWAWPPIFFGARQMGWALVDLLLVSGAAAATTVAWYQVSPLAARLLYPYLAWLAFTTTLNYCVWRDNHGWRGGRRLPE
UniProt Q92574: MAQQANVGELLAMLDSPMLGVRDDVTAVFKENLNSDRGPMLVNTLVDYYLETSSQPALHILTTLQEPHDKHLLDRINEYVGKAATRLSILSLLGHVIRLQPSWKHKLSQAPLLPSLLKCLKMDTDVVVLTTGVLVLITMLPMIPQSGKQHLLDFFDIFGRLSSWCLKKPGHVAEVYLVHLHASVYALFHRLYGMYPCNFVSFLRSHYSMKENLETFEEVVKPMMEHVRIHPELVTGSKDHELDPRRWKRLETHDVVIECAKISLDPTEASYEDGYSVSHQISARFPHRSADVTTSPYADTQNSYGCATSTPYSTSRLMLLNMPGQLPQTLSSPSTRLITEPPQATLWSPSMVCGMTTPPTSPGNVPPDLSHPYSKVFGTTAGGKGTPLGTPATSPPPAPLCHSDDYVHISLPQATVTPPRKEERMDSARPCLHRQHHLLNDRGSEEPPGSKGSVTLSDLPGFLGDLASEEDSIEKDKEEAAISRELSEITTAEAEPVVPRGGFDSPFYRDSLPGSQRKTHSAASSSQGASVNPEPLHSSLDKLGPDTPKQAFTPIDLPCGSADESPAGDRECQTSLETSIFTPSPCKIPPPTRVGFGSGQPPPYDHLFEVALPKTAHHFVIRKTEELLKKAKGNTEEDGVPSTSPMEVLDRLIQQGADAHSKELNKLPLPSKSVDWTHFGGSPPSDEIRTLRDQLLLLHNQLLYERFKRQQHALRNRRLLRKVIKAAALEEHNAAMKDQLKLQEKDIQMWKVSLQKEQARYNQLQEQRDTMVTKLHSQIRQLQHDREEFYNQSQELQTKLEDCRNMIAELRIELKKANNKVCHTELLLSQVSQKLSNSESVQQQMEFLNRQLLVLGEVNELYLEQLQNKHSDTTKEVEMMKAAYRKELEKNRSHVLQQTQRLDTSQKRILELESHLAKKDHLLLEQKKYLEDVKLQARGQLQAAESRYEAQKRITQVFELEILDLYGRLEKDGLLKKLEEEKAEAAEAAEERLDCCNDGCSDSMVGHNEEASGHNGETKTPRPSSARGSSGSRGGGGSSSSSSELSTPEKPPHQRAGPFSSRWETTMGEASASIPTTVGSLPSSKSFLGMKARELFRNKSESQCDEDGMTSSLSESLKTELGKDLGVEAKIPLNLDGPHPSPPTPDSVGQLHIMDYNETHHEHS
UniProt Q9UPN9: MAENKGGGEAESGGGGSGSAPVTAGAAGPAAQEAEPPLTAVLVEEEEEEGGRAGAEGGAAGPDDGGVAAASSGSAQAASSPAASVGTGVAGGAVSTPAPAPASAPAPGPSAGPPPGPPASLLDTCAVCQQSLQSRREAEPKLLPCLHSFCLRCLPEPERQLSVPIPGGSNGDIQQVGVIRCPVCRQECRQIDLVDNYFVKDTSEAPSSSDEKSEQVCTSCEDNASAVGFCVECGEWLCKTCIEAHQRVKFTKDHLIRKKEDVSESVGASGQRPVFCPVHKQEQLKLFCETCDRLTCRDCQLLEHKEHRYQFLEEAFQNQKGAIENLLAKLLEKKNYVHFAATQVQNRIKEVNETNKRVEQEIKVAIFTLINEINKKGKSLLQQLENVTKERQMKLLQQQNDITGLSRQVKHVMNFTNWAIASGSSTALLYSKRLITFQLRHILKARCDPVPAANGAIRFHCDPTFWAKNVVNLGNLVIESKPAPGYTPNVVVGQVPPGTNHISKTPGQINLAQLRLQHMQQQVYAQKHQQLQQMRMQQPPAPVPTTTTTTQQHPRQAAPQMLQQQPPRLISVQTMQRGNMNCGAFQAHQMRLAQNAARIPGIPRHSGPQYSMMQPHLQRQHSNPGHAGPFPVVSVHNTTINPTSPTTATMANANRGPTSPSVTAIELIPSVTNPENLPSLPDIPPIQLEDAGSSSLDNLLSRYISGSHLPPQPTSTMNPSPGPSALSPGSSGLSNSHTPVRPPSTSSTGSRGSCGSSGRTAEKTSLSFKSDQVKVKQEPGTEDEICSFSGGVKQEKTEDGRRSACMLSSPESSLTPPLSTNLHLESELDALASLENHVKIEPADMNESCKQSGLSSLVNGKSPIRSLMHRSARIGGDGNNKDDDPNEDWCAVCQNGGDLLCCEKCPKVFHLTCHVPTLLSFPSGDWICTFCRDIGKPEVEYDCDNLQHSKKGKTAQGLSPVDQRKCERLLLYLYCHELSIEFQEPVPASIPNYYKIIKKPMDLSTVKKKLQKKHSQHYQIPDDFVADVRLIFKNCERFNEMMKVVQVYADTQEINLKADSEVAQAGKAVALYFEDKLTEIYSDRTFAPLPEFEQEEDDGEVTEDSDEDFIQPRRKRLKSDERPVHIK
UniProt Q9C035: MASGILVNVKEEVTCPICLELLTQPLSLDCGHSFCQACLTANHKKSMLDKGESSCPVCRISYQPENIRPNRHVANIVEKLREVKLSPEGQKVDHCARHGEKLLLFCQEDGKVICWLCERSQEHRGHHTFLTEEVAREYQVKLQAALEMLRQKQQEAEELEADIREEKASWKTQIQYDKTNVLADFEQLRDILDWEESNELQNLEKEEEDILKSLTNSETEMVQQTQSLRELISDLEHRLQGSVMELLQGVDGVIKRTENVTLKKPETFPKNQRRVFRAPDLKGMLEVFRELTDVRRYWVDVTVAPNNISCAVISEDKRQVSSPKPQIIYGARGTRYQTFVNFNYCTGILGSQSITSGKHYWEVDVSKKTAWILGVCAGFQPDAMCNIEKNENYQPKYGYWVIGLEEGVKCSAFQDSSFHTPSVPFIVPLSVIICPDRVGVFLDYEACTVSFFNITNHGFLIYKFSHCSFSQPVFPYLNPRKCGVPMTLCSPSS
UniProt O75157: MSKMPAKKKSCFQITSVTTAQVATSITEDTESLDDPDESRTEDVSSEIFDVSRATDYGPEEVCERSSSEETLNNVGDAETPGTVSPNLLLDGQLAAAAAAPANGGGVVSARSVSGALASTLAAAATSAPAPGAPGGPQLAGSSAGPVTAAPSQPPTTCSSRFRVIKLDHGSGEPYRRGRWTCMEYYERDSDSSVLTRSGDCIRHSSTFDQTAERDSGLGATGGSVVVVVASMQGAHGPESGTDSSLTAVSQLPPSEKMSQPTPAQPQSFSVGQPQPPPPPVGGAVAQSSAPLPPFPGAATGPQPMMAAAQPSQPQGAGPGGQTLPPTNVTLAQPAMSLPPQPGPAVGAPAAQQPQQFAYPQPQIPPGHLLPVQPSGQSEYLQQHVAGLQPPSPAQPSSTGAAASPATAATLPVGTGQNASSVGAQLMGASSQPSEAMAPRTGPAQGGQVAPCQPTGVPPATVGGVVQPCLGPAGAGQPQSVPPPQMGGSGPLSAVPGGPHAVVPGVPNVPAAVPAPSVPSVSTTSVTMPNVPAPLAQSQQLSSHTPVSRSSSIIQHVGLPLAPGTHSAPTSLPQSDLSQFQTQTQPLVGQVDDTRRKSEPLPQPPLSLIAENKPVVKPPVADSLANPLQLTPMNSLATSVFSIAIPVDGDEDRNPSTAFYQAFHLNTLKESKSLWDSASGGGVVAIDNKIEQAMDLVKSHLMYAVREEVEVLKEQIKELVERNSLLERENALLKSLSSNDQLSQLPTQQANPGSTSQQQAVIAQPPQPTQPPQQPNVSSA
UniProt Q96F44: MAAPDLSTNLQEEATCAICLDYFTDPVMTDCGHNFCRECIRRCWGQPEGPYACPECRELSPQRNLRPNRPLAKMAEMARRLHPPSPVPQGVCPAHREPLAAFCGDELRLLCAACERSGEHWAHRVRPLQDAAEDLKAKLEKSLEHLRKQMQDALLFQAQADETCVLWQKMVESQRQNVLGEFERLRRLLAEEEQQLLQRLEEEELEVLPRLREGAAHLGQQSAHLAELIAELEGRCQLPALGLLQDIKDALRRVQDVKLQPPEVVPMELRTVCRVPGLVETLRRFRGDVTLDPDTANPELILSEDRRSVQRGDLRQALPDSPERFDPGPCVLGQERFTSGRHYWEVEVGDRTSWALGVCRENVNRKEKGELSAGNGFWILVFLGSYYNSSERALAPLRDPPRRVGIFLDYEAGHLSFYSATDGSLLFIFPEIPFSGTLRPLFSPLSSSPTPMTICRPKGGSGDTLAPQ
UniProt A5PLN9: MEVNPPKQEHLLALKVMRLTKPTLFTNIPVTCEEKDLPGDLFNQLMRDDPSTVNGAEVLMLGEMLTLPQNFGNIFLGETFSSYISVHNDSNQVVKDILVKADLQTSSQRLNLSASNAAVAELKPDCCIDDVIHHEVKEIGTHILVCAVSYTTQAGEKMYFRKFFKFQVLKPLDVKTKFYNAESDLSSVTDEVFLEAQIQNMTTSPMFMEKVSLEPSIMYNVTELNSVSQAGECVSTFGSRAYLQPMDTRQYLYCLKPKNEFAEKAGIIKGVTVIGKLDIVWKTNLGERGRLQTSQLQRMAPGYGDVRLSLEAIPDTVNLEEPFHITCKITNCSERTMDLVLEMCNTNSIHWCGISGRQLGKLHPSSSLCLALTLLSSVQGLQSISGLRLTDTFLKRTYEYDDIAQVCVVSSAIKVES
UniProt Q8N5M4: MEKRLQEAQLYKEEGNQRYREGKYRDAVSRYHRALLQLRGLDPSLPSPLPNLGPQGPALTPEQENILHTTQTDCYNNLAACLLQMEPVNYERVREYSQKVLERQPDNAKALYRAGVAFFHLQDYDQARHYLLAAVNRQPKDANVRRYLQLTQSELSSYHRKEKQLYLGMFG
UniProt Q9Y4K3: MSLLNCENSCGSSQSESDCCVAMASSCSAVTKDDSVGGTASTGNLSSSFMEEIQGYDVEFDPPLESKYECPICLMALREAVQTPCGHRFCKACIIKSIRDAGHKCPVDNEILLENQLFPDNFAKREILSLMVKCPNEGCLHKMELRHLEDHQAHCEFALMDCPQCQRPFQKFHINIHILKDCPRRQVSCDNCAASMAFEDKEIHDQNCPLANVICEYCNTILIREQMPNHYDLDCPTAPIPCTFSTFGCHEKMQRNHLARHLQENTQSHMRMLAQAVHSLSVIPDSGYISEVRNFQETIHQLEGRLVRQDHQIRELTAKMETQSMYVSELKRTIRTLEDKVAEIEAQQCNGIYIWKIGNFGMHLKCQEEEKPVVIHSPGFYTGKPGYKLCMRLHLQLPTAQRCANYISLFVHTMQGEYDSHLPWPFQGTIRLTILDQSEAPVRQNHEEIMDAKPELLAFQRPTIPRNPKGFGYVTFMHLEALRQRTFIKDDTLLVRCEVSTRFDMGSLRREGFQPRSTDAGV

The targets below were run with CCCS(=O)(=O)Nc1ccc(F)c(C(=O)c2c[nH]c3ncc(-c4ccc(Cl)cc4)cc23)c1F [vemurafenib] (assay: log2 fold change, soluble protein after heating vs DMSO (PISA); higher = thermal stabilisation; K562 lysate, 10 uM; active = over 0.2 and 3.5 SD of the protein, either way, in both replicates (recomputed)).
Summary of the method: (§1)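 Dounce homogenisation of K562 pellets in PBS pH 7.4 with 1 mM MgCl2 produced a crude extract, used at 1 mg/mL protein. Exposure to 10 μM compound lasted 30 min, and aliquots were then heated for 3 min across 48°C-58°C, pooled and brought to 0.5% NP-40 at 4°C. The supernatant after 21,000xg for 90 min was quantified by TMTpro 16plex LC-MS/MS with channel sums equalised. Duplicate values are given as log-two fold change in thermal stability relative to solvent controls.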

log2 fold change, inactive:
TRRAP (UniProt Q9Y4A5) -0.005
TSEN54 (UniProt Q7Z6J9) 0.096
TRAPPC2 isoform 3 (UniProt P0DI81) 0.048
TSC2 isoform 4 (UniProt P49815) -0.033
TRAPPC6A isoform 2 (UniProt O75865) -0.144
TRMT11 (UniProt Q7Z4G4) -0.031
TTC4 (UniProt O95801) 0.004
TRAM1 (UniProt Q15629) 0.012
TRIP10 isoform 2 (UniProt Q15642) 0.137
TRMT61A (UniProt Q96FX7) -0.004
TRAPPC2L (UniProt Q9UL33) -0.092
TTC12 isoform 2 (UniProt Q9H892) 0.025
TSPO (UniProt P30536) 0.021
TTC5 (UniProt Q8N0Z6) 0.016
TRIM32 (UniProt Q13049) 0.002
TRAPPC11 (UniProt Q7Z392) -0.008
TSC1 (UniProt Q92574) -0.118
TRIM33 isoform 2 (UniProt Q9UPN9) -0.018
TRNT1 (UniProt Q96Q11) -0.017
TRMT61B (UniProt Q9BVS5) 0.039
TRIM5 (UniProt Q9C035) 0.03
TSPAN13 (UniProt O95857) -0.032
TRIM25 (UniProt Q14258) 0.017
TRPC4AP (UniProt Q8TEL6) -0.022
TSC22D2 (UniProt O75157) 0.001
TRIM11 (UniProt Q96F44) -0.049
TSNAX (UniProt Q99598) 0.005
TRAPPC13 isoform 4 (UniProt A5PLN9) 0.005
TRIP13 (UniProt Q15645) -0.036
TSR2 (UniProt Q969E8) 0.017
TRMT5 (UniProt Q32P41) -0.007
TTC9C (UniProt Q8N5M4) 0.017
TRAF6 (UniProt Q9Y4K3) 0.009

Each target was assayed with CCCS(=O)(=O)Nc1ccc(F)c(C(=O)c2c[nH]c3ncc(Cl)cc23)c1F in the same assay as above.
Summary of the method: as §1

log2 fold change, inactive:
TRRAP (UniProt Q9Y4A5) 0.022
TSEN54 (UniProt Q7Z6J9) 0.028
TRAPPC2 isoform 3 (UniProt P0DI81) 0.035
TSC2 isoform 4 (UniProt P49815) 0.048
TRAPPC6A isoform 2 (UniProt O75865) 0.027
TRMT11 (UniProt Q7Z4G4) 0.016
TTC4 (UniProt O95801) 0.05
TRAM1 (UniProt Q15629) 0.016
TRIP10 isoform 2 (UniProt Q15642) -0.167
TRMT61A (UniProt Q96FX7) 0.003
TRAPPC2L (UniProt Q9UL33) -0.008
TTC12 isoform 2 (UniProt Q9H892) 0.061
TSPO (UniProt P30536) 0.006
TTC5 (UniProt Q8N0Z6) 0.017
TRIM32 (UniProt Q13049) 0.101
TRAPPC11 (UniProt Q7Z392) 0.024
TSC1 (UniProt Q92574) 0.111
TRIM33 isoform 2 (UniProt Q9UPN9) -0.003
TRNT1 (UniProt Q96Q11) -0.006
TRMT61B (UniProt Q9BVS5) 0.02
TRIM5 (UniProt Q9C035) 0.083
TSPAN13 (UniProt O95857) -0.03
TRIM25 (UniProt Q14258) 0.012
TRPC4AP (UniProt Q8TEL6) 0.073
TSC22D2 (UniProt O75157) 0.011
TRIM11 (UniProt Q96F44) -0.018
TSNAX (UniProt Q99598) -0.004
TRAPPC13 isoform 4 (UniProt A5PLN9) 0.032
TRIP13 (UniProt Q15645) 0
TSR2 (UniProt Q969E8) 0.004
TRMT5 (UniProt Q32P41) 0.008
TTC9C (UniProt Q8N5M4) -0.004
TRAF6 (UniProt Q9Y4K3) -0.006

These targets were tested with CCN(CCCOc1ccc2c(Nc3cc(CC(=O)Nc4cccc(F)c4)[nH]n3)ncnc2c1)CCOP(=O)(O)O [barasertib] in the same assay as above.
Summary of the method: as §1

log2 fold change, inactive:
TRRAP (UniProt Q9Y4A5) 0.032
TSEN54 (UniProt Q7Z6J9) -0.003
TRAPPC2 isoform 3 (UniProt P0DI81) 0.002
TSC2 isoform 4 (UniProt P49815) -0.004
TRAPPC6A isoform 2 (UniProt O75865) -0.001
TRMT11 (UniProt Q7Z4G4) -0.033
TTC4 (UniProt O95801) -0.004
TRAM1 (UniProt Q15629) 0.079
TRIP10 isoform 2 (UniProt Q15642) -0.045
TRMT61A (UniProt Q96FX7) 0.025
TRAPPC2L (UniProt Q9UL33) 0.141
TTC12 isoform 2 (UniProt Q9H892) 0.053
TSPO (UniProt P30536) 0.057
TTC5 (UniProt Q8N0Z6) -0.014
TRIM32 (UniProt Q13049) 0.056
TRAPPC11 (UniProt Q7Z392) 0.061
TSC1 (UniProt Q92574) 0.095
TRIM33 isoform 2 (UniProt Q9UPN9) 0.009
TRNT1 (UniProt Q96Q11) -0.071
TRMT61B (UniProt Q9BVS5) -0.003
TRIM5 (UniProt Q9C035) 0.048
TSPAN13 (UniProt O95857) -0.033
TRIM25 (UniProt Q14258) 0.001
TRPC4AP (UniProt Q8TEL6) 0.065
TSC22D2 (UniProt O75157) -0.005
TRIM11 (UniProt Q96F44) -0.034
TSNAX (UniProt Q99598) -0.024
TRAPPC13 isoform 4 (UniProt A5PLN9) 0.032
TRIP13 (UniProt Q15645) 0.033
TSR2 (UniProt Q969E8) -0.07
TRMT5 (UniProt Q32P41) -0.007
TTC9C (UniProt Q8N5M4) -0.011
TRAF6 (UniProt Q9Y4K3) -0.023
